Data as given in patent US8383887B2, “Methods of using plants containing the gdhA gene” (Southern Illinois University Carbondale, priority 2009, dated 2013).

System: gdhA+ Nicotiana tabacum plants
Assay: Metabolites with altered abundance in leaf and root extracts of gdhA+ vs gdhA− Nicotiana tabacum
Details: for Percent Change in abundance in gdhA+ plants compared to gdhA− plants: Nicotiana tabacum
[1] = root extracts, % changes are ±2%
[2] = root extracts, metabolite abundance, gdhA+ vs gdhA− Nicotiana tabacum
[3] = leaf extracts, % changes are ±2%
[4] = leaf extracts, gdhA+ plants compared to gdhA− plants, % changes are ±2%
[5] = root extracts, gdhA+ plants compared to gdhA− plants, % changes are ±2%
[6] = fatty acids (Table 6Ii), tissue not given
[7] = leaf extracts, metabolite abundance, gdhA+ vs gdhA− Nicotiana tabacum

Q: What does the source list for `CC(=O)N[C@@H](Cc1ccc(O)cc1)C(=O)O` [N-acetyl-L-tyrosine]?
A: Percent Change in abundance in gdhA+ plants compared to gdhA− plants [1]: 49%; Percent Change [2]: 49%

Q: With `O=C(O)C1CC(O)C=N1` (centres unmarked) [3-hydroxy-1-pyrroline-gamma-carboxylate] as the compound, how does the “Percent Change in abundance in gdhA+ plants compared to gdhA− plants” value (shortened to “Percent Change in abundance”) [1] read?
A: 244%

Q: Which results are given for `CON(C)C(=O)Nc1cccc(OC(=O)c2ccccc2)c1` [1-(3-benzoyloxyphenyl)-3-methyl-3-methoxyurea]?
A: Percent Change in abundance in gdhA+ plants compared to gdhA− plants [3]: 192%; Percent Change [4]: 192%

Q: Which “Percent Change in abundance” value [1] does the source give for `Cc1cc(C(C)(C)C)c2oc(=O)cc(C)c2c1` [4,6-Dimethyl-8-tert-butylcoumarin] here?
A: 27%

Q: Which “Percent Change in abundance” value [1] does the source give for `CCOC(=O)CCC1CCC(=O)CC1` [Cyclohexanepropionic acid, 4-oxo-, ethyl ester] here?
A: 25%

Q: What about the “Percent Change” value [5] of the same compound?
A: 25%

Q: `C[C@@H](O)[C@H](N)C(=O)O` [Threonine] was tested. Which “Percent Change” value [2] did it give?
A: 435%

Q: For `CCCCCCCCCCCCCCCCCCCCCCC(=O)O` [Tricosanoic acid], which “Percent Change” value [6] is on record?
A: 13%

Q: What about the “Percent Change in abundance” value [1] of the same compound?
A: 10% and 13%

Q: Which “Percent Change in abundance” value [1] does the source give for `CNCCc1ccc(O)c(O)c1` [Epinine] here?
A: 222%

Q: `CCCCCCCCCCCCCCCCCC(=O)OCCC` [Propyl stearate] was tested. Which “Percent Change in abundance” value [1] did it give?
A: 18%

Q: `O=c1ccc2ccccc2o1` [Coumarin] was tested. Which “Percent Change in abundance” value [1] did it give?
A: 10%

Q: For `COc1cc2ccc(=O)oc2cc1O` [Scopoletin], which “Percent Change in abundance” value [3] is on record?
A: 244%

Q: `CCOC(=O)[C@H](Cc1ccc(O)cc1)NC(=O)c1ccccc1` [N-Benzoyl-L-tyrosine ethylester] was tested. Which “Percent Change in abundance” value [1] did it give?
A: 50% and 52%

Q: What about the “Percent Change” value [2] of the same compound?
A: 50% and 52%

Q: How did the “Percent Change in abundance” value [1] turn out when `O=[N+]([O-])c1ccc(C=Cc2cccc(CO)n2)o1` [6-[2-(5-nitrofuranyl)ethenyl]-2-pyridinemethanol] was run?
A: 213%

Q: What about the “Percent Change” value [5] of the same compound?
A: 213%

Q: What does the source list for `N=C(N)NCCC[C@H](N)C(=O)O` [Arginine]?
A: Percent Change [7]: 127%; Percent Change [2]: 222%

Q: Which “Percent Change in abundance” value [1] does the source give for `COc1ccccc1OCC(O)COC(N)=O` (centres unmarked) [Methocarbamol] here?
A: 244%

Q: What about the “Percent Change” value [5] of the same compound?
A: 244%

Q: Which “Percent Change” value [5] does the source give for `C1CN2CCC1N1CCC2CC1` [1,5-diaatricyclo [4.2.2.2(2,5)]dodecane] here?
A: 625%

Q: How did the “Percent Change in abundance” value [1] turn out when `CC(=O)Nc1cnc2ccccc2c1` [3-acetylaminoquinoline] was run?
A: 34%

Q: Which “Percent Change in abundance” value [1] does the source give for `C1CN2CCC1N1CCC2CC1` [1,5-diaatricyclo[4.2.2.2(2,5)]dodecane] here?
A: 625%

Q: With `N[C@@H](Cc1ccccc1)C(=O)O` [Phenylalanine] as the compound, how does the “Percent Change” value [7] read?
A: 244%

Q: And the “Percent Change” value [2]?
A: 233%

Q: How did the “Percent Change in abundance” value [3] turn out when `O=C(O)C(=O)C[C@H](O)[C@@H](O)[C@@H](O)[C@H](O)[C@H](O)CO` [3-Deoxy-D-glycero-D-galacto-2-nonulosonic Acid] was run?
A: 159%

Q: And the “Percent Change in abundance” value [1]?
A: 233%

Q: For `N[C@@H](Cc1c[nH]c2ccccc12)C(=O)O` [Tryptophan], which “Percent Change” value [7] is on record?
A: 217%

Q: What about the “Percent Change” value [2] of the same compound?
A: 222%

Q: With `C1=Cc2ccccc2Nc2ccccc21` [o,o′-Iminostilbene] as the compound, how does the “Percent Change” value [5] read?
A: 13%

Q: Which results are given for `O=C(O)C1=NCCC1` [delta1-Pyrroline 2-carboxylate]?
A: Percent Change in abundance in gdhA+ plants compared to gdhA− plants [1]: 217%; Percent Change [2]: 217%

Q: With `CCOc1ccc2c(C)cc(=O)oc2c1` [7-Ethoxy-4-methylcoumarin] as the compound, how does the “Percent Change in abundance” value [1] read?
A: 36%

Q: Which results are given for `O=C(O)[C@H](O)[C@@H](O)CO` [L-threonate]?
A: Percent Change in abundance in gdhA+ plants compared to gdhA− plants [3]: 370%; Percent Change [4]: 370%

Q: `CCCCCCCCCC(=O)O` [Capric acid] was tested. Which “Percent Change” value [6] did it give?
A: 13%

Q: What about the “Percent Change in abundance” value [1] of the same compound?
A: 13%

Q: How did the “Percent Change” value [6] turn out when `CCCCCCCC/C=C\CCCCCCCC(=O)O` [Oleic acid] was run?
A: 32%

Q: What about the “Percent Change in abundance” value [3] of the same compound?
A: 14%

Q: What about the “Percent Change in abundance” value [1] of the same compound?
A: 19% and 32%

Q: Which “Percent Change” value [2] does the source give for `CC(C)[C@H](N)C(=O)O` [Valine] here?
A: 435%

Q: For `OC[C@@]12OC[C@@H](O1)[C@@H](O)[C@@H](O)[C@@H]2O` [Sedoheptulose anhydride], which “Percent Change in abundance” value [1] is on record?
A: 909%

Q: What does the source list for `CN(C)CCC1CN(C)C(=S)c2cccnc2O1` (centres unmarked) [Rocastine]?
A: Percent Change in abundance in gdhA+ plants compared to gdhA− plants [1]: 276%; Percent Change [5]: 276%

Q: `CC1(C)C2CCC(=O)C1C2` (centres unmarked) [Nopinone] was tested. Which “Percent Change in abundance” value [1] did it give?
A: 20%

Q: `N#CC(=O)c1ccco1` [2-furylglyoxylonitrile] was tested. Which “Percent Change in abundance” value [3] did it give?
A: 182%

Q: And the “Percent Change” value [4]?
A: 182%

Q: With `C=CCC1CCCC1C1C(=O)NC(=O)N(C)C1=O` (centres unmarked) [N-methyl-5-allyl-cyclopentylbarbituric acid] as the compound, how does the “Percent Change in abundance” value [3] read?
A: 208%

Q: And the “Percent Change” value [4]?
A: 208%

Q: What does the source list for `CCCCCCCCCCCCCC(N)=O` [Tetradecanamide]?
A: Percent Change in abundance in gdhA+ plants compared to gdhA− plants [1]: 23%; Percent Change [5]: 23%

Q: Which “Percent Change in abundance” value [1] does the source give for `CCCCCCCCCCCCOCC(OCC)C(=O)OC` (centres unmarked) [Propionic acid, 3-dodecyloxy-2-ethoxy-, methyl ester] here?
A: 556%

Q: And the “Percent Change” value [5]?
A: 556%

Q: Which “Percent Change in abundance” value [1] does the source give for `CCCCC[C@@H]1OC1=C/C=C\CCCCCCCC(=O)O` [(9Z)-(13S)-12,13-Epoxyoctadeca-9,11-dienoate] here?
A: 192%

Q: How did the “Percent Change” value [6] turn out when `CCCCCCCCC(=O)O` [Pelargonic acid] was run?
A: 13%

Q: And the “Percent Change in abundance” value [1]?
A: 13%

Q: `O=C(O)CCCCCCCCCCCCC(=O)O` [Tetradecanedioic acid] was tested. Which “Percent Change” value [6] did it give?
A: 13%

Q: What about the “Percent Change in abundance” value [1] of the same compound?
A: 13%

Q: How did the “Percent Change” value [6] turn out when `CCCCCCCCCCCCC(=O)O` [Tridecanoic acid] was run?
A: 22%

Q: For `NC(=O)C[C@H](N)C(=O)O` [Asparagine], which “Percent Change” value [7] is on record?
A: 455%

Q: What about the “Percent Change” value [2] of the same compound?
A: 1111%

Q: Which “Percent Change in abundance” value [3] does the source give for `NC(=O)Cc1nc(-c2ccccc2)cs1` [4-phenyl-2-thiazoleethanamide] here?
A: 47%

Q: What about the “Percent Change” value [4] of the same compound?
A: 47%

Q: With `O=NN1CCCC1` [N-Nitrosopyrrolidine] as the compound, how does the “Percent Change in abundance” value [3] read?
A: 152%

Q: And the “Percent Change” value [4]?
A: 152%

Q: And the “Percent Change in abundance” value [1]?
A: 714%

Q: And the “Percent Change” value [5]?
A: 714%

Q: How did the “Percent Change in abundance” value [3] turn out when `CCOC(=O)/C=C/C(=O)O` [Fumaric acid, monoethyl ester] was run?
A: 56%

Q: And the “Percent Change in abundance” value [1]?
A: 345%

Q: `CCOC(=O)CCCCCCCCCCCCC(=O)OCC` [Diethyl tetradecanedioate] was tested. Which “Percent Change in abundance” value [1] did it give?
A: 19%

Q: `O=C(O)C1CC(O)C=N1` (centres unmarked) [3-hydroxy-1-pyrroline-delta-carboxylate] was tested. Which “Percent Change in abundance” value [3] did it give?
A: 133%

Q: What about the “Percent Change” value [7] of the same compound?
A: 133%

Q: What about the “Percent Change” value [2] of the same compound?
A: 244%

Q: For `O=C(O)CCCCCCCCCC(=O)O` [Undecanedioic acid], which “Percent Change” value [6] is on record?
A: 14%

Q: What about the “Percent Change in abundance” value [1] of the same compound?
A: 14%

Q: `CCCCC/C=C\C/C=C\CCCCCCCC(=O)OCC` [Ethyl linoleate] was tested. Which “Percent Change in abundance” value [1] did it give?
A: 31%

Q: Which “Percent Change in abundance” value [1] does the source give for `O=c1ccn([C@@H]2O[C@H](CO)[C@@H](O)[C@H]2O)c(=O)[nH]1` [Uridine] here?
A: 400%

Q: And the “Percent Change” value [2]?
A: 400%

Q: For 3-aryl-5-oxoproline ethyl ester, which “Percent Change in abundance” value [3] is on record?
A: 303%

Q: What about the “Percent Change” value [7] of the same compound?
A: 303%

Q: `S=C=NCC1CCC(CN=C=S)CC1` (centres unmarked) [Isothiocyanic acid 1,4-cyclohexylene-dimethylene ester] was tested. Which “Percent Change in abundance” value [1] did it give?
A: 31%

Q: What about the “Percent Change” value [5] of the same compound?
A: 31%

Q: With `CC(C)(C)OC(=O)NC(Cc1c[nH]c2ccccc12)C(=O)O` [N-alpha-BOC-L-tryptophan] as the compound, how does the “Percent Change in abundance” value [3] read?
A: 333%

Q: What about the “Percent Change” value [7] of the same compound?
A: 333%

Q: `N[C@@H](Cc1c[nH]cn1)C(=O)O` [Histidine] was tested. Which “Percent Change” value [7] did it give?
A: 156%

Q: And the “Percent Change” value [2]?
A: 833%

Q: How did the “Percent Change in abundance” value [1] turn out when `CCCOS(=O)(=O)OCCC` [Sulfuric acid dipropyl ester] was run?
A: 56%

Q: What about the “Percent Change” value [5] of the same compound?
A: 56%

Q: For `CCCCCCCCCCCCCCCC(=O)O` [Palmitic acid], which “Percent Change” value [6] is on record?
A: 4%

Q: What about the “Percent Change in abundance” value [3] of the same compound?
A: 30%

Q: What about the “Percent Change in abundance” value [1] of the same compound?
A: 4%

Q: How did the “Percent Change” value [5] turn out when `CC(C)c1cccc(C(C)C)c1N=C1NCCN1` was run?
A: 345%

Q: Which “Percent Change in abundance” value [1] does the source give for `CCC/C=C\[C@@H](/C=C/C=C\CCCCCCCC(=O)O)OO` [(9Z,11E,14Z)-(13S)-Hydroperoxyoctadeca-(9,11,14)-trienoate] here?
A: 238% and 386%

Q: With `CCCCC1=C2NC(N)=N[C@H]3CC[C@@H](C[C@@H]1C)[C@@H]23` [(−)-Ptilocaulin] as the compound, how does the “Percent Change in abundance” value [1] read?
A: 294%

Q: And the “Percent Change” value [5]?
A: 294%

“And” between values parts separate entries of the source, which are not always exact repeats. Equal entries are not always repeated.
